Test results taken from PubChem BioAssay AID1159524 (National Center for Advancing Translational Sciences (NCATS), 2015).
The campaign covered roughly 410,000 compounds. About 5,100 (1.2%) were called active. The source calls these results inconclusive, neither active nor inactive. Calls come from the whole dose curve; tested in HEK293T cells. Some of these compounds have results that are not shown, active ones among them.

assay: High Throughput Screening for Foot and Mouth Disease Virus Antivirals; conditions: FMDV antiviral cell-based qHTS; note: read-out not given here; nearly all actives have a fitted effect of over 45% in size
Potency is the fitted concentration of half-maximal effect.

Structure (SMILES) | Potency
COc1ccc(C(=O)NCC2(N(C)C)CCCCC2)cc1 | inconclusive: 8.91 µM
CCN1CCCC(OC(=O)C2(O)c3ccccc3C=Cc3ccccc32)C1 (stereo not drawn) | inconclusive: 8.91 µM
CCCCC(CC)C(=O)N1CCN(C/C=C/c2ccccc2)CC1 (stereo not drawn) | inconclusive: 10 µM
